Results are given in words; binding and its absence hold for the method and conditions named. In cells and extracts the contact can be indirect. Here binding means that the protein was enriched with, or labelled near, the bait; the list need not be complete.
Biological target: human SMG-1 (hSMG-1) (human) (UniProt Q96Q15)
Assay: mass spectrometry (MALDI-TOF/MS of Lys-C fragments) of the 130 kDa band co-immunoprecipitated with antibody N

The chains behind the UniProt entries cited, without tags or fusion partners.
UniProt Q96Q15: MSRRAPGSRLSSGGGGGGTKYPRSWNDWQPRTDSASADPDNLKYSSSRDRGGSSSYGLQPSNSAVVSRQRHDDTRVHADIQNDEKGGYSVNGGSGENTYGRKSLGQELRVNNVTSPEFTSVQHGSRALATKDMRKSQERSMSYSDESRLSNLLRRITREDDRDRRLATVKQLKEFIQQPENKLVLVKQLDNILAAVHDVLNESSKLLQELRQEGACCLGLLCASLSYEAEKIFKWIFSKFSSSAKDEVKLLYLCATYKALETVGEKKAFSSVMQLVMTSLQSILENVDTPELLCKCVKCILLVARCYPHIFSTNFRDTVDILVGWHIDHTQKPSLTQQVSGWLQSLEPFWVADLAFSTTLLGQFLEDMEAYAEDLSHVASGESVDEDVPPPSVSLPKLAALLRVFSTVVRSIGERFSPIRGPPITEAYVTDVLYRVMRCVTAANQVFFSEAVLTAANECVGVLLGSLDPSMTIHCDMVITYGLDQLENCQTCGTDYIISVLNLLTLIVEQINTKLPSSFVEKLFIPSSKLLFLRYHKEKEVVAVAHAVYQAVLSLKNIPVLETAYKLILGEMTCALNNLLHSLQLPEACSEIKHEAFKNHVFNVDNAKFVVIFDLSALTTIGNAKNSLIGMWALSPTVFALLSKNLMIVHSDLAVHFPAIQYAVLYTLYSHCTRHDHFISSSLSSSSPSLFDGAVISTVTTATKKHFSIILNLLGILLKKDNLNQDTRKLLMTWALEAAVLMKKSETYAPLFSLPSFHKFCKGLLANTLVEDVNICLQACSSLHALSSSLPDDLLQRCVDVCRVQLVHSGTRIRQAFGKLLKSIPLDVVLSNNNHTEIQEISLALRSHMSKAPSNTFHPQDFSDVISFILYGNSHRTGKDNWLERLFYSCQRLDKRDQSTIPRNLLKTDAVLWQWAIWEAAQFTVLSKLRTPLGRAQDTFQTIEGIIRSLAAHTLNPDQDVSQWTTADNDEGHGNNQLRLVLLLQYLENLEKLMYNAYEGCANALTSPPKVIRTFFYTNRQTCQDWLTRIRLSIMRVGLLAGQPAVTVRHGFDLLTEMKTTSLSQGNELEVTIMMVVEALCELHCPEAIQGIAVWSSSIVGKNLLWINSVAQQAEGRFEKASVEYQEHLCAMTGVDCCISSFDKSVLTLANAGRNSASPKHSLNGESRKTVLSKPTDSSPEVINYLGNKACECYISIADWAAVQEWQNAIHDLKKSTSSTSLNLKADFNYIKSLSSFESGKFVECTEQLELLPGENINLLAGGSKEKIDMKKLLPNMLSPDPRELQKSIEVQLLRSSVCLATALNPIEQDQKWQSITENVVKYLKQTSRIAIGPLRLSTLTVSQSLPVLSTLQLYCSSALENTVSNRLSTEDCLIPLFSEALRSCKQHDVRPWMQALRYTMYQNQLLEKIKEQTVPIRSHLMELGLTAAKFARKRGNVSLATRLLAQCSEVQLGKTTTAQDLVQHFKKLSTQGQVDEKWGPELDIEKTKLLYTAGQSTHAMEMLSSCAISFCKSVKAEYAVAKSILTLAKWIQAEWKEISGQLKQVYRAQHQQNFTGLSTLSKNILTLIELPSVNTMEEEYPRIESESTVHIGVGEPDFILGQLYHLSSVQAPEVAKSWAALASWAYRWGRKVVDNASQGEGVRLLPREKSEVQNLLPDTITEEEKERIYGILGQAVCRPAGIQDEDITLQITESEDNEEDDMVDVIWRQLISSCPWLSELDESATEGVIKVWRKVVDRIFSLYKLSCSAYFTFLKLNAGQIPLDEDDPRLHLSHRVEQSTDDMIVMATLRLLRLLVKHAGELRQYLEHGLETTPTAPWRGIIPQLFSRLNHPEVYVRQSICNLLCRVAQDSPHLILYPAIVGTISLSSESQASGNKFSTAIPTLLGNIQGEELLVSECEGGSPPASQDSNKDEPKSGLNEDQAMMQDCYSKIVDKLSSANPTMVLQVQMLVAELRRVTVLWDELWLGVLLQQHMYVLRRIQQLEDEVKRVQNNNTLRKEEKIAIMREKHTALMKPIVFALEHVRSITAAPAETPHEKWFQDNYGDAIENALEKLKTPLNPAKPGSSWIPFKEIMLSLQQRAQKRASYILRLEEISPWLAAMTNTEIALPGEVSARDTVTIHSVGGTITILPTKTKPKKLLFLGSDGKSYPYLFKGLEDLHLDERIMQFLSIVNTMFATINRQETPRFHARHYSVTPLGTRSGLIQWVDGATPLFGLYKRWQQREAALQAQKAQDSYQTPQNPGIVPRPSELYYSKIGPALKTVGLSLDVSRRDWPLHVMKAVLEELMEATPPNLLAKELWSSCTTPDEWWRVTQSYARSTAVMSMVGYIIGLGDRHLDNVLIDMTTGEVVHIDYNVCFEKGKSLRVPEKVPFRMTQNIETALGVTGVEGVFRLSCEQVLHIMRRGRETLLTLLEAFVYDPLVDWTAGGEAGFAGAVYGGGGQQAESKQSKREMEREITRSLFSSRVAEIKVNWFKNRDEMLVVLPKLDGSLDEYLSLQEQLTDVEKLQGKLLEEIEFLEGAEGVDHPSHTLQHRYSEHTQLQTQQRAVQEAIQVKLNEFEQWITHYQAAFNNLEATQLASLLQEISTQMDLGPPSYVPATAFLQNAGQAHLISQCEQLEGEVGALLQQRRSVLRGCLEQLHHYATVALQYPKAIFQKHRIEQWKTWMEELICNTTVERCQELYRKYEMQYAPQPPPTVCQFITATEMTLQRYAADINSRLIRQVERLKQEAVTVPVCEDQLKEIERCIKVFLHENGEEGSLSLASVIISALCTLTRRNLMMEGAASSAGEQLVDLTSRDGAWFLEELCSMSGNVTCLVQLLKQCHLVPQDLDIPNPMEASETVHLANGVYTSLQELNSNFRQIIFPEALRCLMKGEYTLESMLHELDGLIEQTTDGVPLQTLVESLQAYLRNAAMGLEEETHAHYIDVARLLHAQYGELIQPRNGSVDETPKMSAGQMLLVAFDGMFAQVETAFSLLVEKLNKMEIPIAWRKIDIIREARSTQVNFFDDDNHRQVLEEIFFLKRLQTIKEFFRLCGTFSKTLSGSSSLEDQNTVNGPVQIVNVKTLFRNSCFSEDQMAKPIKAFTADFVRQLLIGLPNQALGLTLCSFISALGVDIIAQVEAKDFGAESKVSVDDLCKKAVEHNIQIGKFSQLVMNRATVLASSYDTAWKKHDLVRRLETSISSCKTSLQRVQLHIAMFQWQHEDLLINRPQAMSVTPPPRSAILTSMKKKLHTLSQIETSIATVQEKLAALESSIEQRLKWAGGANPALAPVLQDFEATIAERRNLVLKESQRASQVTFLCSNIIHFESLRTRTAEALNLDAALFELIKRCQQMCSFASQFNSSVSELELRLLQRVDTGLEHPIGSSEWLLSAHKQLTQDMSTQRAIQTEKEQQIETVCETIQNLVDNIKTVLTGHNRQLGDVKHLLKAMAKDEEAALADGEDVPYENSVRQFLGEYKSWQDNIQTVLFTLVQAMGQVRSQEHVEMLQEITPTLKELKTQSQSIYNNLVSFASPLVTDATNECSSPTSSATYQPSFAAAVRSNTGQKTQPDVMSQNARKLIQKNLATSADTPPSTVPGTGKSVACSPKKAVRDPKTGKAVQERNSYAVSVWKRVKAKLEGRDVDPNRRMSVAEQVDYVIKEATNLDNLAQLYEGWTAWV

B1: SMGBP1 (SMG Binding Protein 1) (protein)
chain: MAGPVSLRDLLMGASAWMGSESPGGSPTEGGGSAAGGPEPPWREDEICVVGIFGKTALRLNSEKFSLVNTVCDRQVFPLFRHQDPGDPGPGIRTEAGAVGEAGGAEDPGAAAGGSVRGSGAVAEGNRTEAGSQDYSLLQAYYSQESKVLYLLLTSICDNSQLLRACRALQSGEAGGGLSLPHAEAHEFWKHQEKLQCLSLLYLFSVCHILLLVHPTCSFDITYDRVFRALDGLRQKVLPLLKTAIKDCPVGKDWKLNCRPCPPRLLFLFQLNGALKVVPPRNQDPAHPDKPKKHSPKRRLQHALEDQIYRIFRKSRVLTNQSINCLFTVPANQAFVYIVPGSQEEDPVGMLLDQLRSHCTVKDPESLLVPAPLSGPRRYQVMRQHSRQQLSFHIDSSSSSSSGQLVDFTLWEFLWQHVELVLSKKGFDDSVGRNPQPSHFELPTYQKWISAASKLYEVAIDGKEEDLGSPTGELTSKILSSIKVLEGFLDIDTKFSENRCQKALPMAHSAYQSNLPHNYTMTVHKNQLAQALRVYSQHARGPAFHKYAMQLHEDCYKFWSNGHQLCEERSLTDQHCVHKFHSLPKSGEKPEADRNPPVLYHNSRARSTGACNCGRKQAPRDDPFDIKAANYDFYQLLEEKCCGKLDHINFPVFEPSTPDPAPAKNESSPAPPDSDADKLKEKEPQTQGESTSLSLALSLGQSTDSLGTYPADPQAGGDNPEVHGQVEVKTEKRPNFVDRQASTVEYLPGMLHSNCPKGLLPKFSSWSLVKLGPAKSYNFHTGLDQQGFIPGTNYLMPWDIVIRTRAEDEGDLDTNSWPAPNKAIPGKRSAVVMGRGRRRDDIARAFVGFEYEDSRGRRFMCSGPDKVMKVMGSGPKESALKALNSDMPLYILSSSQGRGLKPHYAQLMRLFVVVPDAPLQIILMPQVQPGPPPCPVFYPEKQEITLPPDGLWVLRFPYAYVTERGPCFPPKENVQLMSYKVLRGVLKAVTQ
With B1 as the binder, how does the binding read?
Its binding is “binds”.
